Test results reported in article doi:10.1101/2025.08.22.671882.
No constants are given. Whether binding was seen depends on the method and setting. Binding seen in cells or lysates may run through a third protein. Here binding means that the protein was enriched with, or labelled near, the bait; the list need not be complete.

Chains of the proteins cited; added tags and fusions are not shown.
UniProt Q07955: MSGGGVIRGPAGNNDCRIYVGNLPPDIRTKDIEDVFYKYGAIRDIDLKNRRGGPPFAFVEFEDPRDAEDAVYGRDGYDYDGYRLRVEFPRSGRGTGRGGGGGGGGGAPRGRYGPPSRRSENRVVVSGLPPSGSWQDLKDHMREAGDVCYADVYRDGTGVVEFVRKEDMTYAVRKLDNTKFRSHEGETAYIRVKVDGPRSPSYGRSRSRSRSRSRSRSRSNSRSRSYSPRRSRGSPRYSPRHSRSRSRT
UniProt Q93008: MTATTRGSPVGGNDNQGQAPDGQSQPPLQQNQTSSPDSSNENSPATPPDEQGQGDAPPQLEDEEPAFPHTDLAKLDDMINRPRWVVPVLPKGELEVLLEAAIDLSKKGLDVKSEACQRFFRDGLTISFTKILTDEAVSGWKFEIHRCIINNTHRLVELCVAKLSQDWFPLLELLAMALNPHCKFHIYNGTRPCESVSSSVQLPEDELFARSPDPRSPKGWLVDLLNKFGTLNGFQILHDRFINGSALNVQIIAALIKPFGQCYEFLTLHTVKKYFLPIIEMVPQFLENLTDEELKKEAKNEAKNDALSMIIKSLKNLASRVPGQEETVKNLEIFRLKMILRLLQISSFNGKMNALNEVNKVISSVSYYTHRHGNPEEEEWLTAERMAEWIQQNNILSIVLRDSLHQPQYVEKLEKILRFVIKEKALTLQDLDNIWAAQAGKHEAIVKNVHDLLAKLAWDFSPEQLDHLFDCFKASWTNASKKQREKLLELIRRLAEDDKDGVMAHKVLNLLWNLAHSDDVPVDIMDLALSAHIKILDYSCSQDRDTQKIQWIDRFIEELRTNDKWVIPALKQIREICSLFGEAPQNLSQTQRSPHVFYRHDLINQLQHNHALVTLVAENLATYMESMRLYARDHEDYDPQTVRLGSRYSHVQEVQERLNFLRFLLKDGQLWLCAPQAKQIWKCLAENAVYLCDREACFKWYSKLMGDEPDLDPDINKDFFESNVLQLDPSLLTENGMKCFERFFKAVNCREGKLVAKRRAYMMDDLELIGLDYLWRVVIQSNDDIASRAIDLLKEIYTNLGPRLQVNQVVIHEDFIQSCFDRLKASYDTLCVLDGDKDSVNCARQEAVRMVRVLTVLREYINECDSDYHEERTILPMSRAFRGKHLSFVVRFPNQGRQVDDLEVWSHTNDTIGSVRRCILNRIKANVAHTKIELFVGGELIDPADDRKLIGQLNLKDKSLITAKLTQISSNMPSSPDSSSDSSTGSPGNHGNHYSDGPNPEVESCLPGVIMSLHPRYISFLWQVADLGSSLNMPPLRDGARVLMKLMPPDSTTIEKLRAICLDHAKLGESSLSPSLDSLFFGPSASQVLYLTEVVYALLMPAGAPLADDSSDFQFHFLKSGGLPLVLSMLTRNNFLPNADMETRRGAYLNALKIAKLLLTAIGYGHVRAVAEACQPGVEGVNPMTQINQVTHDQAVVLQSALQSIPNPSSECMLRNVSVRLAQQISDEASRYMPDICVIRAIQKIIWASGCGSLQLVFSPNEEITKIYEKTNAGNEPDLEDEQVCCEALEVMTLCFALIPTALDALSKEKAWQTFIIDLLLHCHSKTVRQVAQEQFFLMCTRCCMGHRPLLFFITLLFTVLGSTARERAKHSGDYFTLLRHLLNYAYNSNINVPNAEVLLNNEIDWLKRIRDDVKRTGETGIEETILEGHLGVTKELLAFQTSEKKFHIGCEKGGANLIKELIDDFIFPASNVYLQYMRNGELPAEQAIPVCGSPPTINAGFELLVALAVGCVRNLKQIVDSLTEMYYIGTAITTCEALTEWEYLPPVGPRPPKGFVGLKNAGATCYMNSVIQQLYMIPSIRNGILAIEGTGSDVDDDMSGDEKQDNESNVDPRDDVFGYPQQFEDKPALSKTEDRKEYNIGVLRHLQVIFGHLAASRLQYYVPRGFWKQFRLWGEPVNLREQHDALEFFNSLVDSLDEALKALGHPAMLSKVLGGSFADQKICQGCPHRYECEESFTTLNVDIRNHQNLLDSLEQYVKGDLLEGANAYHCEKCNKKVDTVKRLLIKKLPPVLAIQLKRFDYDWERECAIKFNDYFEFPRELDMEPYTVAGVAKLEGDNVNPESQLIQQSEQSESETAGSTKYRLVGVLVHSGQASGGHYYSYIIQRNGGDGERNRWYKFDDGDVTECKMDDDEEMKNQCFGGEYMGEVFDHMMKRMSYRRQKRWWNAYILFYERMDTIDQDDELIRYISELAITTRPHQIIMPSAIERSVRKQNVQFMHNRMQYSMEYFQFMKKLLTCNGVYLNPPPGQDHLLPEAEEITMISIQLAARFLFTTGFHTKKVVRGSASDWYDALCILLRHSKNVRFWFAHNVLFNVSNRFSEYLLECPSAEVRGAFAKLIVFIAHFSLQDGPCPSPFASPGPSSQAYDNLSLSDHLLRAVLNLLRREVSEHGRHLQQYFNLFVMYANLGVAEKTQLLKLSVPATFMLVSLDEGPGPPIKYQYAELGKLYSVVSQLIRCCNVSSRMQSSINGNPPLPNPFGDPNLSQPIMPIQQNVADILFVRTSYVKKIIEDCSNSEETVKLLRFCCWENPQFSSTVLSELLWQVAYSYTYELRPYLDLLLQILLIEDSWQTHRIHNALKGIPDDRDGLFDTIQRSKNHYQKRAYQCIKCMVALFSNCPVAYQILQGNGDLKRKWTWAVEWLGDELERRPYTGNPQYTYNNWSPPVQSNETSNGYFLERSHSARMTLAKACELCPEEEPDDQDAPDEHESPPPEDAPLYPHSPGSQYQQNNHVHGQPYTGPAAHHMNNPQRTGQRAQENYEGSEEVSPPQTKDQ
UniProt Q13620: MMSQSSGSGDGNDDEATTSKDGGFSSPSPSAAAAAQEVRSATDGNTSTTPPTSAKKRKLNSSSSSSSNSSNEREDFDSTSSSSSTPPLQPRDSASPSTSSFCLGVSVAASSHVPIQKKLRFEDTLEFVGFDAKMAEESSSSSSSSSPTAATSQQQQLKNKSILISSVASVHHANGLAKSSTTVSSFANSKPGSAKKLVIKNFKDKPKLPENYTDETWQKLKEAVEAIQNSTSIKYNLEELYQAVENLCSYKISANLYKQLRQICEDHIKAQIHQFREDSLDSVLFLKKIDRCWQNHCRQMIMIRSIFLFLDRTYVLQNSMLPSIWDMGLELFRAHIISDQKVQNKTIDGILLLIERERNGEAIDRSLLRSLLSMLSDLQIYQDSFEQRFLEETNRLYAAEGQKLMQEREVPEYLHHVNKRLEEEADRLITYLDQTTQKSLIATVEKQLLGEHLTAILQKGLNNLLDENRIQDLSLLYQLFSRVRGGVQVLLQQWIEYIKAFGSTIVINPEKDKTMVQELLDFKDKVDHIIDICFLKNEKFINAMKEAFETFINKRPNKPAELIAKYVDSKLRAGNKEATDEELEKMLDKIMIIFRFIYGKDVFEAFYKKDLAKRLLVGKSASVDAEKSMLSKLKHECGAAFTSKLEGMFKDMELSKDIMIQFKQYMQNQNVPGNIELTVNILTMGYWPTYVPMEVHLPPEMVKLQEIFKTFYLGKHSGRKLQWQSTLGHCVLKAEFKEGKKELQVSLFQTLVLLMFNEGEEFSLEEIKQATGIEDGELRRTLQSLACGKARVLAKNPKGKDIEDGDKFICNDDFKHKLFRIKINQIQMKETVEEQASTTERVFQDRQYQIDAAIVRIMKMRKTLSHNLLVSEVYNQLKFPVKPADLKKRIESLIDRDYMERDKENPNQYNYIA
UniProt P51665: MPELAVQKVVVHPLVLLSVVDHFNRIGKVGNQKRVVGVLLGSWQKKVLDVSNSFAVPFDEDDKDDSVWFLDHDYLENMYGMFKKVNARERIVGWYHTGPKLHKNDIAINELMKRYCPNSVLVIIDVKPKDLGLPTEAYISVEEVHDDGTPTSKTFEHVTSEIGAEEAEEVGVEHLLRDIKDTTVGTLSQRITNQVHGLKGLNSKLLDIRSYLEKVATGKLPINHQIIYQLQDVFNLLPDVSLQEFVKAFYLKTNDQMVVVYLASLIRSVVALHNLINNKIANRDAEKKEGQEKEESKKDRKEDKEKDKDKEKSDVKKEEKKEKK

B1: USP39, endogenous (enzyme, UniProt Q53GS9 1-565)
chain: MSGRSKRESRGSTRGKRESESRGSSGRVKRERDREREPEAASSRGSPVRVKREFEPASAREAPASVVPFVRVKREREVDEDSEPEREVRAKNGRVDSEDRRSRHCPYLDTINRSVLDFDFEKLCSISLSHINAYACLVCGKYFQGRGLKSHAYIHSVQFSHHVFLNLHTLKFYCLPDNYEIIDSSLEDITYVLKPTFTKQQIANLDKQAKLSRAYDGTTYLPGIVGLNNIKANDYANAVLQALSNVPPLRNYFLEEDNYKNIKRPPGDIMFLLVQRFGELMRKLWNPRNFKAHVSPHEMLQAVVLCSKKTFQITKQGDGVDFLSWFLNALHSALGGTKKKKKTIVTDVFQGSMRIFTKKLPHPDLPAEEKEQLLHNDEYQETMVESTFMYLTLDLPTAPLYKDEKEQLIIPQVPLFNILAKFNGITEKEYKTYKENFLKRFQLTKLPPYLIFCIKRFTKNNFFVEKNPTIVNFPITNVDLREYLSEEVQAVHKNTTYDLIANIVHDGKPSEGSYRIHVLHHGTGKWYELQDLQVTDILPQMITLSEAYIQIWKRRDNDETNQQGA

Each molecule was assayed against T7-tagged SRSF1 expressed in SUIT-2 cells (UniProt Q07955) (assay: affinity purification with mass spectrometry).
In the case of “USP9X (from UniProt Q93008 1-2554) (enzyme)”, the binding is reported as “binds”. For CUL4B (from UniProt Q13620 1-913), the binding was “binds”. In the case of PSMD7 (from UniProt P51665 1-324), the binding is reported as “binds”. In the case of B1, the binding is reported as “binds”.
